The list shows a part of the results. Further columns of the screen follow, without active or inactive calls. Compounds called inactive in the main read-out are mostly missing here. The note in brackets gives the kind of curve behind each potency; many fits are weak.
Experiment: qHTS Assay to Find Inhibitors of Chronic Active B-Cell Receptor Signaling
Settings: ABC-DLBCL IkBa-CBG/CBR reporter, luminescence ratio (green luciferase fused to IkBa over red control in TMD8 lymphoma cells), 4 h
In short: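 Concentration-response series (up to 46 uM) were applied to TMD8 dual-reporter cells for 4 h at 37C with doxycycline. Green/red ratio, after filter-overlap correction, defined %Activity; red signal alone was normalised to basal cells and zero luminescence.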

[1] = measured here: CBR red luminescence, cell number
[2] = measured here: IkBa-CBG green luminescence

SMILES | AC50 [1] | AC50 [2]
Cc1ccc(S(=O)(=O)N2CCCCC2CCNC(=O)C(=O)NCc2ccccc2)cc1 (centres undefined) | 20.6 µM [rising, partial curve] | 18.4 µM [falling, partial curve]
CC12CCC(=O)N1C(C(=O)Nc1ccc(SC(F)F)cc1)CS2 (centres undefined) | 29.1 µM [rising, partial curve, poor fit] | –
Cc1cc(Cl)ccc1OCCCC(=O)NO | – | 23.1 µM [falling, partial curve, poor fit]
O=C(NCCN1CCOCC1)c1ccc(Cl)cc1 | 31.6 µM [rising, single point] | –
CC(C)Oc1cc(NC(=O)CS(=O)CC(=O)N(C)C)c(Cl)cc1Cl (centres undefined) | 0.501 µM [falling, full curve, poor fit] | –
CCN1CCCC1CNC(=O)c1ccc2c(c1)N(Cc1cccc(Cl)c1)C(=O)c1ccccc1S2(=O)=O (centres undefined) | 3.98 µM [falling, full curve, poor fit] | –
Cc1ccccc1NC(=O)c1sc(NC(=O)COc2ccccc2)c(C#N)c1C | 8.2 µM [rising, partial curve] | –
COc1ccc2cc3cc(C(=O)NCc4cccs4)oc3nc2c1 | 0.0058 µM [rising, full curve, poor fit] | –
COC(=O)c1cccc(NC(=O)CN2CCN(c3ccc(OC)cc3)CC2)c1 | 25.1 µM [rising, single point] | –
CCC(=O)N(Cc1cc2cc(OC)ccc2[nH]c1=O)c1cc(C)ccc1C | 3.98 µM [falling, single point] | –
CCCn1c(-c2ccc[nH]c2=O)nc2cc(C)c(C)cc21 | 20 µM [falling, single point] | –
CCCCn1c(N)c(N(CCOC)C(=O)COC(=O)COc2cccc(C(C)=O)c2)c(=O)[nH]c1=O | 18.4 µM [rising, single point] | –
CCCC(=O)Nc1cccc(NC(=O)CN2CCN(c3ccccc3OC)CC2)c1 | 14.1 µM [rising, partial curve, poor fit] | –
Nc1cccc(-c2nc3ccc(C(=O)c4ccccc4)cc3[nH]2)c1 | 0.631 µM [falling, full curve, poor fit] | 12.6 µM [falling, partial curve, poor fit]
O=C(N/N=C/c1ccc2nccnc2c1)c1ccncc1 | 12.6 µM [falling, partial curve, poor fit] | –
O=C1CSC(=Nc2ccc(Cl)cc2)N1Cc1cccnc1 | 6.31 µM [rising, single point] | –
COc1cc(O)c(CCC(=O)c2ccc(OC)c(OC)c2)c(OC)c1 | 35.5 µM [falling, single point] | –
Cc1ccc(S(=O)(=O)NCCCN2CCOCC2)c(C)c1 | 5.62 µM [falling, single point] | –
COc1cccc(C(=O)Nc2sc3c(c2C(=O)O)CCCC3)c1 | 0.0316 µM [falling, full curve] | –
COc1ccccc1NC(=S)NCCSc1ccc(Cl)cc1 | 14.6 µM [falling, partial curve] | –
COc1ccc2cc(C#N)c(N3CCN(C(=O)c4ccccc4C)CC3)nc2c1 | 35.5 µM [falling, single point] | –
CC1(C)Cc2c(sc(NC(=O)c3ccccc3Cl)c2C(=O)O)CO1 | 7.08 µM [falling, partial curve] | –

SMILES | AC50 [1] | AC50 [2]
CCC(=O)Nc1nnc(-c2ccco2)o1 | 29.1 µM [falling, single point] | –
CCOc1ccc2oc(C(=O)N(CC)CC(=O)Nc3ccc(NC(C)=O)cc3)c(C)c2c1 | 32.6 µM [falling, single point] | –
N#Cc1cnc2nc(SCc3ccccc3)nn2c1 | 12.6 µM [falling, single point] | –
CCc1ccccc1NC(=S)N(CCCN1CCOCC1)Cc1ccccn1 | 32.6 µM [falling, partial curve, poor fit] | –
O=C(Nc1cccc(NC(=O)c2cccs2)c1)c1ccc([N+](=O)[O-])o1 | 11.2 µM [falling, partial curve] | –
Cc1csc2nc(O)c(C(=O)NCCCc3ccccc3)c(=O)n12 | 3.26 µM [falling, full curve] | –
COc1ccc2nc(NC(=O)C3=NN(c4ccccc4)C(=O)CC3)sc2c1 | 29.1 µM [falling, single point] | –
COc1cccc(OC)c1C(=O)Nc1cc2c(cc1N1CCOCC1)n(C)c(=O)n2C | 11.2 µM [rising, partial curve, poor fit] | –
N/C(=N\NC(=O)Nc1ccccc1)c1ccccn1 | 5.01 µM [falling, partial curve] | –
c1ccc(-c2nnc(-c3ccccc3)o2)cc1 | 14.1 µM [falling, partial curve] | –
CC(C)Cn1c(SC(C)C(=O)Nc2ccc3c(c2)OCCO3)nc2ccccc2c1=O (centres undefined) | 10 µM [falling, partial curve] | –
CC(C)CC(=O)Nc1ccc(C(=O)NNC(=O)C(c2ccccc2)c2ccccc2)cc1 | 5.8 µM [rising, partial curve, poor fit] | –
CCN(CC)S(=O)(=O)c1cc(F)ccc1OC | 29.1 µM [rising, single point] | –
COC(=O)c1sc(N)c(C(=O)OC)c1Cn1ncc(Cl)c(Cl)c1=O | 35.5 µM [falling, single point] | –
CCOC(=O)C1CCCN(C(=O)c2sc3nc(-c4ccc(OC)cc4)cn3c2C)C1 (centres undefined) | 10 µM [falling, partial curve] | –
O=C(CCC1CCCCC1)NCc1cccs1 | 2.91 µM [rising, partial curve, poor fit] | –
CCCCn1c(-c2csc3ccccc23)n[nH]c1=S | 5.8 µM [falling, single point] | –
N#C/C(=N\Nc1ccccc1Cl)C(=O)c1ccccc1 | 8.91 µM [falling, partial curve] | –
Cc1ccc([N+](=O)[O-])cc1NCC(=O)NN | 35.5 µM [falling, single point] | –
CC(Sc1nc2ccccc2c(=O)n1CCc1ccc(S(N)(=O)=O)cc1)C(=O)NC(N)=O (centres undefined) | 0.794 µM [falling, full curve, poor fit] | –
O=C(CNC(=O)c1ccc2c(c1)OCO2)N/N=C(Br)/C=C/c1ccccc1 | 8.2 µM [falling, partial curve] | 20.6 µM [falling, single point]
Cc1ccc(S(=O)(=O)N(C)C)cc1NC(=O)c1cncc(Br)c1 | 18.4 µM [falling, single point] | –

Structural class: the compounds so far with bromine (two)
SMILES | AC50 [1] | AC50 [2]
O=C(CNC(=O)c1ccc2c(c1)OCO2)N/N=C(Br)/C=C/c1ccccc1 | 8.2 µM [falling, partial curve] | 20.6 µM [falling, single point]
Cc1ccc(S(=O)(=O)N(C)C)cc1NC(=O)c1cncc(Br)c1 | 18.4 µM [falling, single point] | –

Carrying on.

SMILES | AC50 [1] | AC50 [2]
CCCN(CCC)CCCNC(=O)C1c2cc(OC)c(OC)cc2C(=O)N(C)C1c1cccs1 (centres undefined) | 2.59 µM [rising, partial curve] | –
CCC(C)NC(=O)CO/N=C/c1ccccc1OC(F)F (centres undefined) | 32.6 µM [rising, partial curve, poor fit] | –
CCN(CC)S(=O)(=O)c1cc(C(=O)NCCN2CCOCC2)ccc1Cl | 1.12 µM [falling, full curve] | –
c1ccc2cc(CNCc3cccc4ccccc34)ccc2c1 | 7.94 µM [rising, partial curve, poor fit] | –
Cc1ccc(-n2nc3cc(C)c(N)cc3n2)cc1 | 20.6 µM [falling, single point] | –
O=C(NCCOc1ccccc1)c1ccccc1NC(=O)C1CCCO1 (centres undefined) | 3.98 µM [rising, full curve, poor fit] | –
CC(/C=N/Nc1nnc2c(n1)[nH]c1ccccc12)=C\c1ccco1 | 23.1 µM [falling, partial curve] | –
Cc1cc2n(n1)SC(Nc1cccc3ccccc13)N2 (centres undefined) | 18.4 µM [rising, single point] | –
O=C(N/N=C\c1ccncc1)c1ccccc1O | 1.58 µM [falling, full curve] | –
COc1ccc(CCNC(=O)CN2C(=O)CCSc3ccccc32)c(OC)c1 | 17.8 µM [falling, single point] | –
CN(C)S(=O)(=O)N(CC(=O)Nc1ccc(F)c(F)c1)c1ccccc1 | 1.46 µM [falling, partial curve, poor fit] | –
N#CCC(=O)Nc1ccc(C(=O)NNC(=S)NC2CC2)cc1 | 25.9 µM [falling, single point] | –
O=C(C1CCCN(S(=O)(=O)c2ccc(F)cc2)C1)N1CCCC1 (centres undefined) | 0.794 µM [falling, full curve] | –
COc1nonc1NC(=O)CSc1nc2ccccc2[nH]1 | 7.94 µM [falling, partial curve, poor fit] | –
C/C(CC(=O)Nc1ccc(OCc2ccccc2)cc1)=N\NC(=O)C(=O)Nc1ccc(C)c(Cl)c1 | 31.6 µM [falling, single point] | –
O=C(CCC1CCCC1)NNC(=O)c1ccccc1O | 29.1 µM [falling, single point] | –
Cc1ccc(Cn2c(NC(=O)c3ccco3)nc3ccccc32)cc1 | 6.31 µM [falling, single point] | –
COCCCNC(=O)COC(=O)c1ccc(-c2nc3ccccc3s2)s1 | 3.16 µM [falling, full curve] | –
COc1ccc(S(=O)(=O)N2CCOCC2)cc1NC(=O)c1cc(C)oc1C | 29.1 µM [falling, single point] | –
Cc1ccc(SCC(=O)Nc2ccc(-c3nnc(-c4ccco4)o3)cc2)cc1 | 31.6 µM [rising, partial curve, poor fit] | –
O=C(NC(=S)Nc1ccc(F)c(Cl)c1)C1CC1 | – | 17.8 µM [falling, partial curve, poor fit]
Cc1ccc(S(=O)(=O)CCc2nc3ccccc3[nH]2)cc1 | 0.891 µM [rising, partial curve, poor fit] | –
